These are yes or no findings as the source states them, for the method shown. In cells and extracts the contact can be indirect. Some results given as binding are weak or reduced against the parent protein; the word gives no strength.
Target: Yes-associated protein (human (endogenous in LM7)) (UniProt P46937)
Experiment: co-IP; whole cell extracts of LM7 cells treated for 2 h with DMSO, Riluzole or Riluzole + PPY A; extract in 400 mM KCl buffer diluted to 200 mM KCl, 10 mM Tris-HCl pH 7.9, 0.25% NP-40; protein A beads with anti-YAP antibody, 2 h at 4 °C; blot with anti-p73, reprobed with anti-YAP

The chains behind the UniProt entries cited, without tags or fusion partners.
UniProt P46937: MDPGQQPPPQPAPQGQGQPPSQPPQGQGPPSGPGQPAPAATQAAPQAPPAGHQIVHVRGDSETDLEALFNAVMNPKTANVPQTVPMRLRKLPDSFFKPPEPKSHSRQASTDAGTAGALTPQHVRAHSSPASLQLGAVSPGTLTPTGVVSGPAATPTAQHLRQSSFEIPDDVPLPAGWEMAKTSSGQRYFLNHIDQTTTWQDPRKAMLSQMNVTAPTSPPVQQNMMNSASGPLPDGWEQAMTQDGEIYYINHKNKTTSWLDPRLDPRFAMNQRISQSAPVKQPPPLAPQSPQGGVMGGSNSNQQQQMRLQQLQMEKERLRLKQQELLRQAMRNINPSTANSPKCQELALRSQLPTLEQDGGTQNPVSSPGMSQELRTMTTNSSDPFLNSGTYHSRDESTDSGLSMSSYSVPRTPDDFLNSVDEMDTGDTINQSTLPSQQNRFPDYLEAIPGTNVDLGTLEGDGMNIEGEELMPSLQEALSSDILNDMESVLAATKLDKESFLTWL

- binding: binds
B1: p73 (protein, UniProt O15350 1-636)
chain: MAQSTATSPDGGTTFEHLWSSLEPDSTYFDLPQSSRGNNEVVGGTDSSMDVFHLEGMTTSVMAQFNLLSSTMDQMSSRAASASPYTPEHAASVPTHSPYAQPSSTFDTMSPAPVIPSNTDYPGPHHFEVTFQQSSTAKSATWTYSPLLKKLYCQIAKTCPIQIKVSTPPPPGTAIRAMPVYKKAEHVTDVVKRCPNHELGRDFNEGQSAPASHLIRVEGNNLSQYVDDPVTGRQSVVVPYEPPQVGTEFTTILYNFMCNSSCVGGMNRRPILIIITLEMRDGQVLGRRSFEGRICACPGRDRKADEDHYREQQALNESSAKNGAASKRAFKQSPPAVPALGAGVKKRRHGDEDTYYLQVRGRENFEILMKLKESLELMELVPQPLVDSYRQQQQLLQRPSHLQPPSYGPVLSPMNKVHGGMNKLPSVNQLVGQPPPHSSAATPNLGPVGPGMLNNHGHAVPANGEMSSSHSAQSMVSGSHCTPPPPYHADPSLVSFLTGLGCPNCIEYFTSQGLQSIYHLQNLTIEDLGALKIPEQYRMTIWRGLQDLKQGHDYSTAQQLLRSSNAATISIGGSGELQRQRVMEAVHFRVRHTITIPNRGGPGGGPDEWADFGFDLPDCKARKQPIKEEFTEAEIH
